Experimental data from patent US6441027B1, “Method of regulating the female reproductive system through angiogenesis inhibitors” (Children's Medical Center Corporation, priority 1996, dated 2002).

Experiment: Serum progesterone enzyme immunoassay on E9
Assay type: in vivo, mouse

SMILES: CO[C@@H]1[C@H](OC(=O)NC(=O)CCl)CC[C@]2(CO2)[C@H]1[C@@]1(C)O[C@@H]1CC=C(C)C [AGM-1470, O-chloroacetylcarbamoyl fumagillol]
- serum progesterone level on E9 (30 mg/kg on E1, n=3, NS): 112%±23 % of control
- serum progesterone level on E9 (30 mg/kg on E7, n=3, NS): 161%±24 % of control
